Measurements as given in patent US20090209510A1, “Novel Method of Treating Hyperlipidemia” (TAKEDA PHARMACEUTICAL COMPANY LIMITED, priority 2005, published 2009).

Legend:
[1] = system: Hartley guinea pigs; conditions: atorvastatin 50 mg/kg alone or with Compound X 30 mg/kg, 7 days
[2] = system: Wistar Fatty rats; assay: Lowering effect on plasma triglyceride by use in combination of Compound X and atorvastatin (Example 1); format: in vivo, rat; conditions: 30 mg/kg alone, orally once a day for 8 days, overnight fasting, average ± standard error (N = 6)
Method: To Wistar Fatty rats (19 week-old female, N=6), 10-mL/kg dose of the vehicle, Compound X (30 mg/kg) alone, atorvastatin (30 mg/kg) alone or combination of both drugs was administered orally for 8 days, once a day.

**Q.** What does the source list for `CC(C)c1c(C(=O)Nc2ccccc2)c(-c2ccccc2)c(-c2ccc(F)cc2)n1CC[C@@H](O)C[C@@H](O)CC(=O)O` [Atorvastatin, atorvastatin]?
**A.** increase in the aspartate aminotransferase in plasma [1]: Significant increase; Plasma triglyceride value [2]: 192.1 ± 15.2 mg/dL
